Test results taken from patent publication US20180305423A1 (OKLAHOMA MEDICAL RESEARCH FOUNDATION, published 2018).
No constants are given. Whether binding was seen depends on the method and setting. For part of these data: Binding seen in cells or lysates may run through a third protein. Some results given as binding are weak or reduced against the parent protein; the word gives no strength.

Protein sequences, listed by entry. Tags and fused reporters are not part of them. Residues count along the entry.
UniProt P15208, residues 28-1372: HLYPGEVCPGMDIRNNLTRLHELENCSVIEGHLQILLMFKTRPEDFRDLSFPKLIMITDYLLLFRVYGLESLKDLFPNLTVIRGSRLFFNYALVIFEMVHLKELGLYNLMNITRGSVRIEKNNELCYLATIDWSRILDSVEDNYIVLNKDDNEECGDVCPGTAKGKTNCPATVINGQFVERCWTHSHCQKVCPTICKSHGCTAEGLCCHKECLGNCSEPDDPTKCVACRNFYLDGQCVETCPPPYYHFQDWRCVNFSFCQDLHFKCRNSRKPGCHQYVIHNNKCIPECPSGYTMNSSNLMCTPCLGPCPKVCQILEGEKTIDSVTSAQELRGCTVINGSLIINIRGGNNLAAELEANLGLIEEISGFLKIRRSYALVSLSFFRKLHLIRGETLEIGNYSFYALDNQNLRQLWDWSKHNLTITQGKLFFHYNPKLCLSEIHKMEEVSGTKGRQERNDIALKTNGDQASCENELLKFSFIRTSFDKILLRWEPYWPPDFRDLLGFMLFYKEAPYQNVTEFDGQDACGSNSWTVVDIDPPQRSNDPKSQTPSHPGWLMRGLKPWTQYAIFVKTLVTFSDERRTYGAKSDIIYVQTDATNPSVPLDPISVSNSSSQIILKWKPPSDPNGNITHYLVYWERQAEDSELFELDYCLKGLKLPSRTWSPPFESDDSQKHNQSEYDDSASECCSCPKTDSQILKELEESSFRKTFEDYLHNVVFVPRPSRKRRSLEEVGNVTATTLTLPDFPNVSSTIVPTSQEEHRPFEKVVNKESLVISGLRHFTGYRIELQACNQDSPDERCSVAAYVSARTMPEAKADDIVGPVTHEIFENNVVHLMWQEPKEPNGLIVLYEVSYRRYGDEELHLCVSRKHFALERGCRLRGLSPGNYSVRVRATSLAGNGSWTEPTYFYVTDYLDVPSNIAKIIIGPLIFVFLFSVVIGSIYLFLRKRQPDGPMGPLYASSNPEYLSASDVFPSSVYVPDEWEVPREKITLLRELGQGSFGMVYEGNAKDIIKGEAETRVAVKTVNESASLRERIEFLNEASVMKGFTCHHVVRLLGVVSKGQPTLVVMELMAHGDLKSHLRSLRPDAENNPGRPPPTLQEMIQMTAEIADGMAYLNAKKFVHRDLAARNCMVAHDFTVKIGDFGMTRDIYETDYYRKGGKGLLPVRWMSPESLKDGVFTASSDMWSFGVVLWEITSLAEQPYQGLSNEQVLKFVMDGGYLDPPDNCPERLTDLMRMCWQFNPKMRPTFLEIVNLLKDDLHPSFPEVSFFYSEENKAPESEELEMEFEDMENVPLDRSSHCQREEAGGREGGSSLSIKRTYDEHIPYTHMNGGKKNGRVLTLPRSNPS
UniProt Q60751, residues 31-1373: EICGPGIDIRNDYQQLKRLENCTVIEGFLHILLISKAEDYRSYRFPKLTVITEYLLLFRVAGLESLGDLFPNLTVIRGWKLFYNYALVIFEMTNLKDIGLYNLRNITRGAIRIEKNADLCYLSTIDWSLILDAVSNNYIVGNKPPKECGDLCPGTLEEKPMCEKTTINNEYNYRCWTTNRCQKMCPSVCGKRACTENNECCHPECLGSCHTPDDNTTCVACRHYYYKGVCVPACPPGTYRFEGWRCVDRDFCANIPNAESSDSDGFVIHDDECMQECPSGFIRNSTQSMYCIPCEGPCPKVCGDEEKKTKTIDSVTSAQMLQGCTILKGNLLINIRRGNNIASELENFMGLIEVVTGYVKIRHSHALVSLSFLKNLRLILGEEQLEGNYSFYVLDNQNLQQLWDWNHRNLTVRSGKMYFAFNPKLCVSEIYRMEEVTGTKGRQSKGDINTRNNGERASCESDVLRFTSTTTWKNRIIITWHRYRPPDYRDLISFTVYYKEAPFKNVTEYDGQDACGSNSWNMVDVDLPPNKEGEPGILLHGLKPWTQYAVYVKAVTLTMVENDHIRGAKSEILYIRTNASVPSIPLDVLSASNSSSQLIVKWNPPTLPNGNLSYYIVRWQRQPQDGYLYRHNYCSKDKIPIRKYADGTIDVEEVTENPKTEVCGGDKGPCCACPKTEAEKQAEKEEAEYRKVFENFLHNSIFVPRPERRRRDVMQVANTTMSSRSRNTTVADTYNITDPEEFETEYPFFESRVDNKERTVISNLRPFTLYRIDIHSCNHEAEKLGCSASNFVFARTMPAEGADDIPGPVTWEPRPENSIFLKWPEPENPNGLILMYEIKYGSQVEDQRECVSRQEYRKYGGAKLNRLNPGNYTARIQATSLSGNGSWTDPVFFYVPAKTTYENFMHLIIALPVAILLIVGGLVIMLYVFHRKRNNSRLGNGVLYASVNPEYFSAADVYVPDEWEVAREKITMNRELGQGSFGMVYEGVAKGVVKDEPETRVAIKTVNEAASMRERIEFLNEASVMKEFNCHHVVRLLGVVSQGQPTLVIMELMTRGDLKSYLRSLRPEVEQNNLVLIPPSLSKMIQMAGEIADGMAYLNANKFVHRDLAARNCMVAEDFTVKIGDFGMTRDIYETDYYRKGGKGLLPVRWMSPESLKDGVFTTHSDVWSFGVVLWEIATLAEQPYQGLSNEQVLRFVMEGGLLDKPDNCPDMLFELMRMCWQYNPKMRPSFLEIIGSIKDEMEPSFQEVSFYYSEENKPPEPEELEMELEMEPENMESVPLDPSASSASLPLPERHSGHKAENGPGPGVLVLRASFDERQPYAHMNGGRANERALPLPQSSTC

How the values were obtained:
[1] = biological target: Insulin receptor (IR) (UniProt P15208); test: IP analysis in 3T3-L1 cells (FIG. 29)
[2] = biological target: Insulin-like growth factor receptor (IGF-1R) (UniProt Q60751); test: IP analysis in 3T3-L1 cells (FIG. 29)
[3] = biological target: Insulin receptor (IR) (UniProt P15208); test: co-IP with anti-epsin 1 from 3T3-L1 pre-adipocytes with or without insulin, blot printed as 'IR1'
[4] = biological target: Insulin receptor (IR) (UniProt P15208); test: IP analysis in 3T3-L1 pre-adipocytes (FIG. 29)
[5] = biological target: Insulin-like growth factor receptor (IGF-1R) (UniProt Q60751); test: IP analysis in 3T3-L1 pre-adipocytes (FIG. 29)
[6] = biological target: Insulin-like growth factor receptor (IGF-1R) (UniProt Q60751); test: co-IP with anti-epsin 1 from 3T3-L1 pre-adipocytes with or without insulin, blot for IGF-1R

Measured: binding

B1: Epsin 1 (endogenous, MAEC and 3T3-L1 cells) (other, mouse, UniProt Q80VP1 1-575, looked up)
chain: MSTSSLRRQMKNIVHNYSEAEIKVREATSNDPWGPSSSLMSEIADLTYNVVAFSEIMSMIWKRLNDHGKNWRHVYKAMTLMEYLIKTGSERVSQQCKENMYAVQTLKDFQYVDRDGKDQGVNVREKAKQLVALLRDEDRLREERAHALKTKEKLAQTATASSAAVGSGPPPEAEQAWPQSSGEEELQLQLALAMSKEEADQPPSCGPEDDVQLQLALSLSREEHDKEERIRRGDDLRLQMAIEESKRETGGKEESSLMDLADVFTTPAPPQASDPWGGPASVPTAVPVAAAASDPWGGPAVPPAADPWGGAAPTPASGDPWRPAAPTGPSVDPWGGTPAPAAGEGPTPDPWGSSDGGAPVSGPPSSDPWAPAPAFSDPWGGSPAKPSSNGTAVGGFDTEPDEFSDFDRLRTALPTSGSSTGELELLAGEVPARSPGAFDMSGVGGSLAESVGSPPPAATPTPTPPTRKTPESFLGPNAALVDLDSLVSRPGPTPPGSKASNPFLPSGAPPTGPSVTNPFQPAPPATLTLNQLRLSPVPPVPGAPPTYISPLGGGPGLPPMMPPGPPAPNTNPFLL
notes: also called epsins
binds: [1] | [2] | [3] | [4] | [5] | [6]
